Reference: PMC9870992
These are yes or no findings as the source states them, for the method shown. Binding seen in cells or lysates may run through a third protein. Here binding means that the protein was enriched with, or labelled near, the bait; the list need not be complete.

Chains of the proteins cited; added tags and fusions are not shown.
UniProt P78347: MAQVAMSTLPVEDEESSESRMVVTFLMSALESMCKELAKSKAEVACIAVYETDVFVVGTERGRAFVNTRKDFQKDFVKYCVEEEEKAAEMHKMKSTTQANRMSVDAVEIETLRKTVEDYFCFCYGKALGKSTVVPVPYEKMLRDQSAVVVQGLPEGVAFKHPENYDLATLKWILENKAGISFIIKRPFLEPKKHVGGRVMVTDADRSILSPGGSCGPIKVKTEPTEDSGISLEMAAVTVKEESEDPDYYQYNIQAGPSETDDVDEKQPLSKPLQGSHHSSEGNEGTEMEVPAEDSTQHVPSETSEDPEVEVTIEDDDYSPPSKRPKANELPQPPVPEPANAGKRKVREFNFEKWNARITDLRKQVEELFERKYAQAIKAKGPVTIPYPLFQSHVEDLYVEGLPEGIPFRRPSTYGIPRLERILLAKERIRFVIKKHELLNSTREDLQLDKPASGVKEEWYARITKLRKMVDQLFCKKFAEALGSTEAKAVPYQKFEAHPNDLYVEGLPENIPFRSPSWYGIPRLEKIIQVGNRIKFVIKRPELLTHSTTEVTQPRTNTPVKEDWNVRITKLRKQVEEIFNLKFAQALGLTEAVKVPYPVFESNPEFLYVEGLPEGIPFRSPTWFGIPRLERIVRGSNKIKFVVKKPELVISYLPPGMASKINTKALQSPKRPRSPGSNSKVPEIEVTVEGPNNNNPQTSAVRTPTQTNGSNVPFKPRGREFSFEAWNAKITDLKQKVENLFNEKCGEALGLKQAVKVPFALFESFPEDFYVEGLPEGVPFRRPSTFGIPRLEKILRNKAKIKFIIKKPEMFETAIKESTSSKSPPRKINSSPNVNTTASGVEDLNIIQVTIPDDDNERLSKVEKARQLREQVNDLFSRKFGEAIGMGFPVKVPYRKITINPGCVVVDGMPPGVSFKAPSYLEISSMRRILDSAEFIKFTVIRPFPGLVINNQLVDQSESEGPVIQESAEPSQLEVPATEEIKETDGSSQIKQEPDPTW

Target: TFII-I-TurboID-Myc (UniProt P78347)
Test: proximity labelling; Bio-ID in HEK293T transfected with TurboID fusions; 500 μM biotin for 1 h; endogenous TRIM24 immunoprecipitated and blotted with Streptavidin-HRP

binding: binds
B1: endogenous TRIM24 (protein, UniProt O15164 1-1050)
chain: MEVAVEKAVAAAAAASAAASGGPSAAPSGENEAESRQGPDSERGGEAARLNLLDTCAVCHQNIQSRAPKLLPCLHSFCQRCLPAPQRYLMLPAPMLGSAETPPPVPAPGSPVSGSSPFATQVGVIRCPVCSQECAERHIIDNFFVKDTTEVPSSTVEKSNQVCTSCEDNAEANGFCVECVEWLCKTCIRAHQRVKFTKDHTVRQKEEVSPEAVGVTSQRPVFCPFHKKEQLKLYCETCDKLTCRDCQLLEHKEHRYQFIEEAFQNQKVIIDTLITKLMEKTKYIKFTGNQIQNRIIEVNQNQKQVEQDIKVAIFTLMVEINKKGKALLHQLESLAKDHRMKLMQQQQEVAGLSKQLEHVMHFSKWAVSSGSSTALLYSKRLITYRLRHLLRARCDASPVTNNTIQFHCDPSFWAQNIINLGSLVIEDKESQPQMPKQNPVVEQNSQPPSGLSSNQLSKFPTQISLAQLRLQHMQQQVMAQRQQVQRRPAPVGLPNPRMQGPIQQPSISHQQPPPRLINFQNHSPKPNGPVLPPHPQQLRYPPNQNIPRQAIKPNPLQMAFLAQQAIKQWQISSGQGTPSTTNSTSSTPSSPTITSAAGYDGKAFGSPMIDLSSPVGGSYNLPSLPDIDCSSTIMLDNIVRKDTNIDHGQPRPPSNRTVQSPNSSVPSPGLAGPVTMTSVHPPIRSPSASSVGSRGSSGSSSKPAGADSTHKVPVVMLEPIRIKQENSGPPENYDFPVVIVKQESDEESRPQNANYPRSILTSLLLNSSQSSTSEETVLRSDAPDSTGDQPGLHQDNSSNGKSEWLDPSQKSPLHVGETRKEDDPNEDWCAVCQNGGELLCCEKCPKVFHLSCHVPTLTNFPSGEWICTFCRDLSKPEVEYDCDAPSHNSEKKKTEGLVKLTPIDKRKCERLLLFLYCHEMSLAFQDPVPLTVPDYYKIIKNPMDLSTIKKRLQEDYSMYSKPEDFVADFRLIFQNCAEFNEPDSEVANAGIKLENYFEELLKNLYPEKRFPKPEFRNESEDNKFSDDSDDDFVQPRKKRLKSIEERQLLK
